# Data from the supplement of paper PMC6411743.
# By UniProt entry, the sequences of proteins in these tests, tags left out. Where a name states a change or a piece, a line headed by the entry shows the natural chain unless it says otherwise.
# UniProt P67812: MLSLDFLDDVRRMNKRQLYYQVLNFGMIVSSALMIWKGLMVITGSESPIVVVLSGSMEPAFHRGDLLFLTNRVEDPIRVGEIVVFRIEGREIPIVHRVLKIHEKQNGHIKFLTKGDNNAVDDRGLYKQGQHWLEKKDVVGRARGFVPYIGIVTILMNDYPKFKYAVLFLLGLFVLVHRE
# UniProt Q9H0H0, whole entry: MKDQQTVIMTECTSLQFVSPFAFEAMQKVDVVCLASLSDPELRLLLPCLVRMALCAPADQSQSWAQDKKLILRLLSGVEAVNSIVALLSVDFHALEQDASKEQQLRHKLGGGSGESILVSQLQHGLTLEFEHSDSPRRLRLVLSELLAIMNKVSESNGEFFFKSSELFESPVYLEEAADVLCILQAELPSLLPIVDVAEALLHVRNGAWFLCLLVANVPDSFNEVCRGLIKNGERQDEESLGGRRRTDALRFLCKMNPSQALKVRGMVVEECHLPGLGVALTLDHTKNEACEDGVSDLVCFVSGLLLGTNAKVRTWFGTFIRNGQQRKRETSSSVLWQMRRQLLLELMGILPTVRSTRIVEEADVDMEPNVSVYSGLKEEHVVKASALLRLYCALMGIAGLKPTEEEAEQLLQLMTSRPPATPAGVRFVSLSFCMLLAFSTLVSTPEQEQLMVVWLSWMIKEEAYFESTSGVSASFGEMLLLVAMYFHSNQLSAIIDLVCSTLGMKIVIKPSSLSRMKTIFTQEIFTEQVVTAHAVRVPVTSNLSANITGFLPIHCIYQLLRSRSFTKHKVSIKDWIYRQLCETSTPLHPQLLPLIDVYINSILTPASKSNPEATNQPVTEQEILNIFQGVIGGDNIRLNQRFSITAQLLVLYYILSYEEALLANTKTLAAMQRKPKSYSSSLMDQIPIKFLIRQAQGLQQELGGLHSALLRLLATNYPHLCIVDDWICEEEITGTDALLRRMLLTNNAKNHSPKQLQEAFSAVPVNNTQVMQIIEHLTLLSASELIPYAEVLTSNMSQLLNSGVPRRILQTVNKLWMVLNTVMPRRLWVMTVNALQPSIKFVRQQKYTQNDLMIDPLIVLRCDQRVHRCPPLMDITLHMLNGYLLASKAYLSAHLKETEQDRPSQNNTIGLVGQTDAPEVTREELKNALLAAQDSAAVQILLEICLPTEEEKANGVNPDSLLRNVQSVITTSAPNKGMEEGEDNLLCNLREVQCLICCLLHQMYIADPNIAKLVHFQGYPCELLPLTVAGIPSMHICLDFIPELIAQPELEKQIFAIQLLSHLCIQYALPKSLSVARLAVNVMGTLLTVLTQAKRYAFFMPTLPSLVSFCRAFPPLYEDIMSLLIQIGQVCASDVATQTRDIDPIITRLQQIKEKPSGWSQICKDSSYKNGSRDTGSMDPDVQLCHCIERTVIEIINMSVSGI
# UniProt P34949: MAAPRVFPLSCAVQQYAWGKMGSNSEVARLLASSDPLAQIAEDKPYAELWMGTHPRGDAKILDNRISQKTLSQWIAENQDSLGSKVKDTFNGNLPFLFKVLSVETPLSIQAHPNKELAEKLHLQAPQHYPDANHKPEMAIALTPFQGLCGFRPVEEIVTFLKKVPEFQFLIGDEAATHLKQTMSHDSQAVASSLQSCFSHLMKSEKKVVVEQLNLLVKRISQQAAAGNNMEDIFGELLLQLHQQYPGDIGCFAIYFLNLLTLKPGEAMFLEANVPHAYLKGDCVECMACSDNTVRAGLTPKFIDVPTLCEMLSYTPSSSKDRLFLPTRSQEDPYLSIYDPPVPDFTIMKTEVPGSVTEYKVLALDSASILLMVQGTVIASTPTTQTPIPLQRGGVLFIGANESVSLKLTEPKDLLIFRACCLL
# UniProt Q9HAD4: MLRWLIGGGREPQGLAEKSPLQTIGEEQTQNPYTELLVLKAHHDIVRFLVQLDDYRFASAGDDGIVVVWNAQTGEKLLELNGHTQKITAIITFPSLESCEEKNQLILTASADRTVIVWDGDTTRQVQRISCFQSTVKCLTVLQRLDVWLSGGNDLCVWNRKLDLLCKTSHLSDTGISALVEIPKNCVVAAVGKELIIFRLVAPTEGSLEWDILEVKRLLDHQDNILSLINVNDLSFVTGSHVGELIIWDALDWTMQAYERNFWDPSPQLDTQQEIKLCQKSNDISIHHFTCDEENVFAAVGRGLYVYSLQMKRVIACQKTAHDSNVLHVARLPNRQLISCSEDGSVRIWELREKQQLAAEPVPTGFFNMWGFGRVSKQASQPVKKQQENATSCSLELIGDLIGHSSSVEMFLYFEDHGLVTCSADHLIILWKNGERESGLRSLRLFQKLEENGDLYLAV
# UniProt P78364: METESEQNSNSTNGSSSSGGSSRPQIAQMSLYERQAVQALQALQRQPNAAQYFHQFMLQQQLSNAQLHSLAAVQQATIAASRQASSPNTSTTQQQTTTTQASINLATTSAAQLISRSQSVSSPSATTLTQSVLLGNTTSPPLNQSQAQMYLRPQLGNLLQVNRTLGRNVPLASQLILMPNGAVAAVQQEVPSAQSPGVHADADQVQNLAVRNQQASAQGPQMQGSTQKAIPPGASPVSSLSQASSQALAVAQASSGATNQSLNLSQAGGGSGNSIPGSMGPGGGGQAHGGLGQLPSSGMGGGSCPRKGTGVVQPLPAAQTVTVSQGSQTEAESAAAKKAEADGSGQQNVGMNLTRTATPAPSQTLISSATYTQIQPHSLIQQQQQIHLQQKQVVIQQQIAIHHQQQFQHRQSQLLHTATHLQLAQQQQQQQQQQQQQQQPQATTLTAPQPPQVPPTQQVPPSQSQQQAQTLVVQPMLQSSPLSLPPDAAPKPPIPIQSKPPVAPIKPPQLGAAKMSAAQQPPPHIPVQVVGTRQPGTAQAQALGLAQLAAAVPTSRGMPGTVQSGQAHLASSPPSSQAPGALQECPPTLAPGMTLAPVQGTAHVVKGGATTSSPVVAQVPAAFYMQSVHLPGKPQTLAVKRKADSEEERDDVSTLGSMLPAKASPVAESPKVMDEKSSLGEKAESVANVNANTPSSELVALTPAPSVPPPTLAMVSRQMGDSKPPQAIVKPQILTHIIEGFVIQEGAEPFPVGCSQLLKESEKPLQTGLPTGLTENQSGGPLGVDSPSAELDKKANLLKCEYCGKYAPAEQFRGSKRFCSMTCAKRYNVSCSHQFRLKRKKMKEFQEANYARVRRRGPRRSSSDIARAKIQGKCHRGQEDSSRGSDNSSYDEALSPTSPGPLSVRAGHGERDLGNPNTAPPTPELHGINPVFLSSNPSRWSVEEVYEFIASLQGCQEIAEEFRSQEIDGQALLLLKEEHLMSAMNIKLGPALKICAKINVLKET
# UniProt Q8N0W3: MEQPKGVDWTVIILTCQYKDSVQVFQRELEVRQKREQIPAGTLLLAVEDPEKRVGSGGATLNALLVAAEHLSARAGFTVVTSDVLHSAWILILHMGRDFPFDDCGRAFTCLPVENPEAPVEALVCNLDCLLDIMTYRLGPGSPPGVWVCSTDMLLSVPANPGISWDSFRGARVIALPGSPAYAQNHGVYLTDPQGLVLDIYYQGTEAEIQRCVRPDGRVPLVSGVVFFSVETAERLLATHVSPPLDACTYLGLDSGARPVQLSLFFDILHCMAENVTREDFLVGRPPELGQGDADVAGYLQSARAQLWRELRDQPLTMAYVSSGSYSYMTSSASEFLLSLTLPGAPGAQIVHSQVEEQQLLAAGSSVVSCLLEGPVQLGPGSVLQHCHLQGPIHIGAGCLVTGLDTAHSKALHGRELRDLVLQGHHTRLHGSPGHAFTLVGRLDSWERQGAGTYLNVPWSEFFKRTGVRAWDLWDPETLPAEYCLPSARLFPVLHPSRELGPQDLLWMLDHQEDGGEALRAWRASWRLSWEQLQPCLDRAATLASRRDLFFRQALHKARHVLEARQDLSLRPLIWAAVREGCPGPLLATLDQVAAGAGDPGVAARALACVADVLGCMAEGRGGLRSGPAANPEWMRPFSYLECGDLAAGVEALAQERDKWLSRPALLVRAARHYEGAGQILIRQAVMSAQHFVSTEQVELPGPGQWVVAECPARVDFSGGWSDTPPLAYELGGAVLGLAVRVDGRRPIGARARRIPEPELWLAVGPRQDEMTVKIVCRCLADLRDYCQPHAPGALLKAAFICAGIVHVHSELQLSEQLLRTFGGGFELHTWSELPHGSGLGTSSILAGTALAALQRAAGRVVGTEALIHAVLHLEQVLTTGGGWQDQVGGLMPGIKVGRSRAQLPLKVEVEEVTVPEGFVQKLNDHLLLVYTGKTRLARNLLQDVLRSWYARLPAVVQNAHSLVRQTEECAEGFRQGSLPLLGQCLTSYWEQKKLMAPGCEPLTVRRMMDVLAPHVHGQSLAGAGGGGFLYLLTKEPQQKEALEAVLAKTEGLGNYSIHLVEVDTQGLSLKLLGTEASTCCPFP
# UniProt O75354: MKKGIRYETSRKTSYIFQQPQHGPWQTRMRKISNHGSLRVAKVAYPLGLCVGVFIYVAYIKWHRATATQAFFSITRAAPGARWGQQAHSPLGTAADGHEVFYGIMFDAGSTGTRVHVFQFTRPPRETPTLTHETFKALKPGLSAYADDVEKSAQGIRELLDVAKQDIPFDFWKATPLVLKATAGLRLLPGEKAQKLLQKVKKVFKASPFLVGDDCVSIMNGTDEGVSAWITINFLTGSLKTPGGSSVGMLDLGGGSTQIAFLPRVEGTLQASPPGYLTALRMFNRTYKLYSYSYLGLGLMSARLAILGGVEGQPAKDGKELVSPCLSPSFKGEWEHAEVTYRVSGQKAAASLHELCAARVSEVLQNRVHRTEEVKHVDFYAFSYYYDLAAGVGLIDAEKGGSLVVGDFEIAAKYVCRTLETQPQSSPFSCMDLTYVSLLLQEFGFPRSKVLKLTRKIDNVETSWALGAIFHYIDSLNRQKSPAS
# UniProt Q99708: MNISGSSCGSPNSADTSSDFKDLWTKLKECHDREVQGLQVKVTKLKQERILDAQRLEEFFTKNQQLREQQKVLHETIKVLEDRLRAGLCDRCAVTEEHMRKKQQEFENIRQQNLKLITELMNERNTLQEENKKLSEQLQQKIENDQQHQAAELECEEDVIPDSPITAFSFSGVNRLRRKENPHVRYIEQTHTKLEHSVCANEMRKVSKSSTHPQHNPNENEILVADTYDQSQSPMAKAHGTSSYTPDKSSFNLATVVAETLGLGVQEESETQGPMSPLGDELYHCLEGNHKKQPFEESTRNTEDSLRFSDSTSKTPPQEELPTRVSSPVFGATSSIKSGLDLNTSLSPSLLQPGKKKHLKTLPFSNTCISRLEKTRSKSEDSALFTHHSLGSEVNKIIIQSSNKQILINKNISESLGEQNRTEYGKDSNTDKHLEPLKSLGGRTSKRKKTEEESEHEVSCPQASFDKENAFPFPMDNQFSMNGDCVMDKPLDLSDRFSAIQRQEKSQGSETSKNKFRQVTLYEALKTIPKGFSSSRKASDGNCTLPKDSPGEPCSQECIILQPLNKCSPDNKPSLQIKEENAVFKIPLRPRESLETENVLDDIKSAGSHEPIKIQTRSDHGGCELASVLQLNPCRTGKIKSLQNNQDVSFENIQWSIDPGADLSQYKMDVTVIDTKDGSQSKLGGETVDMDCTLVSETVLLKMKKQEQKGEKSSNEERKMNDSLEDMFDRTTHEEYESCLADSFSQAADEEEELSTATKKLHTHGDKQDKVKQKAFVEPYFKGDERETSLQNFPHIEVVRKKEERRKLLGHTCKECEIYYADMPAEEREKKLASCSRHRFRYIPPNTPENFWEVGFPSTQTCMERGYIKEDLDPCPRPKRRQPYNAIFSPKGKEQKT
# UniProt P78537: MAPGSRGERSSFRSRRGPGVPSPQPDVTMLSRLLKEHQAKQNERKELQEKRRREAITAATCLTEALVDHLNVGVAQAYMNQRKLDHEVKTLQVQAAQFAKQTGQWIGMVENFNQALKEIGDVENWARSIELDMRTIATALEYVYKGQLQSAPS
# UniProt H0UI80: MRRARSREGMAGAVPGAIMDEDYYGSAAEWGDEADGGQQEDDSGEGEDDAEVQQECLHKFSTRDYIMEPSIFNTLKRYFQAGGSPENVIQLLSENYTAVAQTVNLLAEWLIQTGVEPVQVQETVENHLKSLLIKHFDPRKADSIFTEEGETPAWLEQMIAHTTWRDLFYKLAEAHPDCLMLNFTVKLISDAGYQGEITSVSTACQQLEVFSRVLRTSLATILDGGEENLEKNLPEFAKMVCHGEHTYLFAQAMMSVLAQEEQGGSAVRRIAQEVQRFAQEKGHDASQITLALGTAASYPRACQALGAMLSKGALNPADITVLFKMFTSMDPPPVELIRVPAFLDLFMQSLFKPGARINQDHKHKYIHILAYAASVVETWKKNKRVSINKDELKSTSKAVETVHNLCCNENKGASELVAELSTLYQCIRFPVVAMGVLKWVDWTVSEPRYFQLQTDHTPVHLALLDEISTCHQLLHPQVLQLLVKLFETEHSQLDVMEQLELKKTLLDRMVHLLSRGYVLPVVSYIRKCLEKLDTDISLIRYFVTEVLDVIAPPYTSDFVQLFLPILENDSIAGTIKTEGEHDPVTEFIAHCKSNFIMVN
# ± gives the standard deviation of the averaged measurements. Only a part is listed here, and it is no random draw. Most values lie at the level of the controls, where differences are scatter.
# Compound: Nc1ncnc2c1ncn2[C@@H]1O[C@H](COP(=O)(O)OP(=O)(O)NP(=O)(O)O)[C@@H](O)[C@H]1O [adenylyl imidodiphosphate]
# Assay: NP40-soluble protein abundance relative to vehicle (solubility fold change) (ratio); higher = more soluble protein in presence of AMP-PNP
# Conditions: concentration: 0.1mM
# Summary of the method: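 Crude Jurkat lysate, prepared by Dounce homogenisation, was exposed to eight concentrations from 0.1 to 10 mM for 10 min at room temperature and then 3 min at 37 °C. Solubilisation used 0.8% NP40 with benzonase for 60 min at 4 °C, followed by ultracentrifugation and TMT labelling of the supernatant for LC-MS/MS. After vsn normalisation of intensities, each value is the fold change against the detergent-processed vehicle within each replicate, across three independent experiments.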
row,Target,NP40-soluble protein abundance
1,G8JLH9 and related entries (UniProt P40763),1.006 ± 0.0092
2,J3KNI1 and related entries (UniProt Q9H9E3),1 ± 0.026
3,H0YNG3 and related entries (UniProt P67812),1.01 ± 0.041
4,J3KPP4 and related entries (UniProt O95232),1.05 ± 0.044
5,H0YN99 and related entries (UniProt Q9H792),1.01 ± 0.012
6,J3QKK3 and related entries (UniProt O43502),0.963 ± 0.017
7,K4DI93 and related entries (UniProt Q13620),1.01 ± 0.013
8,H3BNM4 and related entries (UniProt Q8NBZ0),1 ± 0.013
9,J3QR07 and related entries (UniProt Q96MU7),1.01 ± 0.058
10,J3KMZ7 and related entries (UniProt Q9H0H0),1.02 ± 0.034
11,H3BPB8 and related entries (UniProt P34949),1.01 ± 0.013
12,J3QT87 and related entries (UniProt Q96SW2),0.962 ± 0.027
13,H7C5A7 and related entries (UniProt O14734),1.01 ± 0.022
14,I3L1T3 and related entries (UniProt Q9GZP9),1.02 ± 0.028
15,H0YAA3 and related entries (UniProt Q9HAD4),1.05 ± 0.029
16,J3KTL2 and related entries (UniProt Q07955),0.995 ± 0.04
17,J3KQH6 and related entries (UniProt P78364),1 ± 0.032
18,J3QK89 and related entries (UniProt Q8IWX8),1.04 ± 0.032
19,H0Y6Y6 and related entries (UniProt P29017),0.9873 ± 0.0083

row,Target,NP40-soluble protein abundance
1,H3BSD9 and related entries (UniProt Q6PIF6),1.077 ± 0.0075
2,H7C5I3 and related entries (UniProt P35236),0.976 ± 0.017
3,H0YLF8 and related entries (UniProt P50213),1.03 ± 0.034
4,H7C1N3 and related entries (UniProt O15155),0.979 ± 0.051
5,J3KSP6 and related entries (UniProt Q8N0W3),1.02 ± 0.021
6,H0Y473 and related entries (UniProt O75354),0.992 ± 0.021
7,J3KNZ9 (UniProt Q9HAH7),0.982 ± 0.013
8,I3L1P8 and related entries (UniProt Q02978),1.02 ± 0.035
9,H0Y4B0 and related entries (UniProt O43414),1.015 ± 0.0086
10,H7C1W4 and related entries (UniProt Q93075+H7C1W4),0.998 ± 0.037
11,H3BVD9 and related entries (UniProt O43278),1.016 ± 0.01
12,I6L8A6 and related entries (UniProt Q99708),0.948 ± 0.025
13,J3KN16 and related entries (UniProt Q5VYK3+J3KN16),1.01 ± 0.017
14,H0YDK9 and related entries (UniProt Q5H9R7),0.951 ± 0.045
15,H3BSH7 and related entries (UniProt Q969X6),1 ± 0.025
16,H0Y9I3 and related entries (UniProt Q9HAV4),1.01 ± 0.037
17,G8JLQ3 and related entries (UniProt P78537),0.9997 ± 0.0085
18,H0UI80 and related entries (UniProt X6RLT1+Q8IXH7+H0UI80),0.998 ± 0.049
19,H3BSS6 and related entries (UniProt Q9H2Y7),0.998 ± 0.017

# Same assay, conditions: concentration: 0.5mM
row,Target,NP40-soluble protein abundance
1,G8JLH9 and related entries (UniProt P40763),1 ± 0.029
2,J3KNI1 and related entries (UniProt Q9H9E3),0.985 ± 0.011
3,H0YNG3 and related entries (UniProt P67812),1.04 ± 0.043
4,J3KPP4 and related entries (UniProt O95232),1.03 ± 0.022
5,H0YN99 and related entries (UniProt Q9H792),1.02 ± 0.024
6,J3QKK3 and related entries (UniProt O43502),0.965 ± 0.047
7,K4DI93 and related entries (UniProt Q13620),1 ± 0.0078
8,H3BNM4 and related entries (UniProt Q8NBZ0),1.1 ± 0.06
9,J3QR07 and related entries (UniProt Q96MU7),1.04 ± 0.072
10,J3KMZ7 and related entries (UniProt Q9H0H0),1.02 ± 0.025
11,H3BPB8 and related entries (UniProt P34949),1.02 ± 0.018
12,J3QT87 and related entries (UniProt Q96SW2),0.976 ± 0.052
13,H7C5A7 and related entries (UniProt O14734),0.983 ± 0.01
14,I3L1T3 and related entries (UniProt Q9GZP9),0.991 ± 0.029
15,H0YAA3 and related entries (UniProt Q9HAD4),0.972 ± 0.044
16,J3KTL2 and related entries (UniProt Q07955),1.07 ± 0.12
17,J3KQH6 and related entries (UniProt P78364),1.01 ± 0.051
18,J3QK89 and related entries (UniProt Q8IWX8),1.05 ± 0.032
19,H0Y6Y6 and related entries (UniProt P29017),1 ± 0.025

row,Target,NP40-soluble protein abundance
1,H3BSD9 and related entries (UniProt Q6PIF6),1 ± 0.075
2,H7C5I3 and related entries (UniProt P35236),0.987 ± 0.043
3,H0YLF8 and related entries (UniProt P50213),0.999 ± 0.017
4,H7C1N3 and related entries (UniProt O15155),0.984 ± 0.065
5,J3KSP6 and related entries (UniProt Q8N0W3),0.967 ± 0.041
6,H0Y473 and related entries (UniProt O75354),0.982 ± 0.028
7,J3KNZ9 (UniProt Q9HAH7),1.01 ± 0.013
8,I3L1P8 and related entries (UniProt Q02978),0.968 ± 0.029
9,H0Y4B0 and related entries (UniProt O43414),1.01 ± 0.066
10,H7C1W4 and related entries (UniProt Q93075+H7C1W4),0.969 ± 0.019
11,H3BVD9 and related entries (UniProt O43278),1 ± 0.019
12,I6L8A6 and related entries (UniProt Q99708),0.965 ± 0.041
13,J3KN16 and related entries (UniProt Q5VYK3+J3KN16),1 ± 0.027
14,H0YDK9 and related entries (UniProt Q5H9R7),0.951 ± 0.031
15,H3BSH7 and related entries (UniProt Q969X6),0.997 ± 0.042
16,H0Y9I3 and related entries (UniProt Q9HAV4),0.963 ± 0.029
17,G8JLQ3 and related entries (UniProt P78537),1.01 ± 0.015
18,H0UI80 and related entries (UniProt X6RLT1+Q8IXH7+H0UI80),0.982 ± 0.058
19,H3BSS6 and related entries (UniProt Q9H2Y7),1.01 ± 0.019
